CoaBC: 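Coenzyme A biosynthesis protein CoaBC, Mycobacterium tuberculosis (UniProt P9WNZ1). Enzyme assay of CoaBC with a phosphate dye (Biomol Green) read at 650 nm. Concentration: 30 µM. Direction is inferred from only a few compounds that gave an IC50; most scored high, so higher reads as stronger inhibition. Most strong results did not repeat in a second test. About 67,000 compounds were tested under these conditions; 0.06% (about 40) showed 50% or more at least once.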
PfKRS1: 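Lysine-tRNA ligase, Plasmodium falciparum 3D7 (UniProt Q8IDJ8). Enzyme assay of the cytosolic lysyl-tRNA synthetase in 384-well plates, read by luminescence. Tested at 30 µM. Higher reads as stronger inhibition, judged from the few compounds that gave an IC50. Size under these conditions: about 69,000 compounds, about 49 of them at 50% or above in at least one test.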
Toxoplasma: 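Assay of Toxoplasma gondii numbers, read through their beta-galactosidase reporter with a colour substrate. Tested at 10 µM. Higher reads as fewer parasites (inferred from which compounds were picked for retests). About 67,000 compounds were tested under these conditions; 0.38% (about 260) showed 50% or more at least once.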
MtTrpRS: 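Enzyme assay of tryptophanyl-tRNA synthetase; the read-out is not stated. Target: Tryptophan-tRNA ligase, Mycobacterium tuberculosis (UniProt P9WFT3). Tested at 10 µM. Direction is not recorded; retested compounds ran higher, which suggests that high means inhibition. About 65,000 compounds were tested under these conditions; 0.098% (about 64) showed 50% or more at least once.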
Pks13 thioesterase: 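Enzyme assay of the thioesterase domain of polyketide synthase 13; the read-out is not stated. Target: Polyketide synthase Pks13, Mycobacterium tuberculosis (UniProt I6X8D2). Tested at 30 µM. Higher reads as stronger inhibition (inferred from which compounds were picked for retests). About 67,000 compounds were tested under these conditions; 0.46% (about 300) showed 50% or more at least once.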

The chains behind the UniProt entries cited, without tags or fusion partners. Residues count along the entry.
UniProt P9WNZ1, whole entry: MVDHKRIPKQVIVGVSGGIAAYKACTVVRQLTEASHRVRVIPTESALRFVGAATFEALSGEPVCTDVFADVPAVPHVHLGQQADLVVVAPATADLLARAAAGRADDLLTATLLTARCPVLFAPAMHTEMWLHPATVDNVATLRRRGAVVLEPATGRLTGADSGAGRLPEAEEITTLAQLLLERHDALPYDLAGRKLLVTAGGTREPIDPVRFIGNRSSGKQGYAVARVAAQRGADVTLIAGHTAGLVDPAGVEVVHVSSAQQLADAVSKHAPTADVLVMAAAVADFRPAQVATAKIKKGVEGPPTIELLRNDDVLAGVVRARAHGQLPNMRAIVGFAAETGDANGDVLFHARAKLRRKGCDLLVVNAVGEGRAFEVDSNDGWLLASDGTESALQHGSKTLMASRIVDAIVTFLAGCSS
UniProt Q8IDJ8, 1-583: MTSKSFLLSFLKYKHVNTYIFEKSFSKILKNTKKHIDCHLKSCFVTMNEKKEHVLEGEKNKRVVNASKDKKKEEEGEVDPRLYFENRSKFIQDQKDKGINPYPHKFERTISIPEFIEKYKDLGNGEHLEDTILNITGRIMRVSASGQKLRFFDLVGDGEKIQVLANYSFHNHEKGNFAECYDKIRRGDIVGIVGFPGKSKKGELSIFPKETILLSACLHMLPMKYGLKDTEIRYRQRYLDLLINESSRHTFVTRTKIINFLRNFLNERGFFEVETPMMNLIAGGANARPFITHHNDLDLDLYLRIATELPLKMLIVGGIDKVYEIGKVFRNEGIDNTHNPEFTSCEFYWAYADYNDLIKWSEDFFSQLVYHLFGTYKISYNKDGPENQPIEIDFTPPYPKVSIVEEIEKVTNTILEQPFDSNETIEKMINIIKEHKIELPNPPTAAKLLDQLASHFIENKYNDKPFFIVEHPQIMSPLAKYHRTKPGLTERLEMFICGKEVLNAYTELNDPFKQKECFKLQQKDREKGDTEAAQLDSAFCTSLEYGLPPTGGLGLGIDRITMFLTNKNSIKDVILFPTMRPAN
UniProt P9WFT3, whole entry: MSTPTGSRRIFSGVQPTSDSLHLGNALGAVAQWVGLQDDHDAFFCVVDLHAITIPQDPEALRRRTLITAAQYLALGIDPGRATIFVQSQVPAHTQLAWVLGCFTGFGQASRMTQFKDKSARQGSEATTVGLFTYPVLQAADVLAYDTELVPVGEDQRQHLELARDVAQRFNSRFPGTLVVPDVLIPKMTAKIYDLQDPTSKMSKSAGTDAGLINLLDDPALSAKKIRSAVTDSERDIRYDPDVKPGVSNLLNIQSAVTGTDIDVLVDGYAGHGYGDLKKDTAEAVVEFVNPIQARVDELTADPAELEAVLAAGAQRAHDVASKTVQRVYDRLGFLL
UniProt I6X8D2, whole entry: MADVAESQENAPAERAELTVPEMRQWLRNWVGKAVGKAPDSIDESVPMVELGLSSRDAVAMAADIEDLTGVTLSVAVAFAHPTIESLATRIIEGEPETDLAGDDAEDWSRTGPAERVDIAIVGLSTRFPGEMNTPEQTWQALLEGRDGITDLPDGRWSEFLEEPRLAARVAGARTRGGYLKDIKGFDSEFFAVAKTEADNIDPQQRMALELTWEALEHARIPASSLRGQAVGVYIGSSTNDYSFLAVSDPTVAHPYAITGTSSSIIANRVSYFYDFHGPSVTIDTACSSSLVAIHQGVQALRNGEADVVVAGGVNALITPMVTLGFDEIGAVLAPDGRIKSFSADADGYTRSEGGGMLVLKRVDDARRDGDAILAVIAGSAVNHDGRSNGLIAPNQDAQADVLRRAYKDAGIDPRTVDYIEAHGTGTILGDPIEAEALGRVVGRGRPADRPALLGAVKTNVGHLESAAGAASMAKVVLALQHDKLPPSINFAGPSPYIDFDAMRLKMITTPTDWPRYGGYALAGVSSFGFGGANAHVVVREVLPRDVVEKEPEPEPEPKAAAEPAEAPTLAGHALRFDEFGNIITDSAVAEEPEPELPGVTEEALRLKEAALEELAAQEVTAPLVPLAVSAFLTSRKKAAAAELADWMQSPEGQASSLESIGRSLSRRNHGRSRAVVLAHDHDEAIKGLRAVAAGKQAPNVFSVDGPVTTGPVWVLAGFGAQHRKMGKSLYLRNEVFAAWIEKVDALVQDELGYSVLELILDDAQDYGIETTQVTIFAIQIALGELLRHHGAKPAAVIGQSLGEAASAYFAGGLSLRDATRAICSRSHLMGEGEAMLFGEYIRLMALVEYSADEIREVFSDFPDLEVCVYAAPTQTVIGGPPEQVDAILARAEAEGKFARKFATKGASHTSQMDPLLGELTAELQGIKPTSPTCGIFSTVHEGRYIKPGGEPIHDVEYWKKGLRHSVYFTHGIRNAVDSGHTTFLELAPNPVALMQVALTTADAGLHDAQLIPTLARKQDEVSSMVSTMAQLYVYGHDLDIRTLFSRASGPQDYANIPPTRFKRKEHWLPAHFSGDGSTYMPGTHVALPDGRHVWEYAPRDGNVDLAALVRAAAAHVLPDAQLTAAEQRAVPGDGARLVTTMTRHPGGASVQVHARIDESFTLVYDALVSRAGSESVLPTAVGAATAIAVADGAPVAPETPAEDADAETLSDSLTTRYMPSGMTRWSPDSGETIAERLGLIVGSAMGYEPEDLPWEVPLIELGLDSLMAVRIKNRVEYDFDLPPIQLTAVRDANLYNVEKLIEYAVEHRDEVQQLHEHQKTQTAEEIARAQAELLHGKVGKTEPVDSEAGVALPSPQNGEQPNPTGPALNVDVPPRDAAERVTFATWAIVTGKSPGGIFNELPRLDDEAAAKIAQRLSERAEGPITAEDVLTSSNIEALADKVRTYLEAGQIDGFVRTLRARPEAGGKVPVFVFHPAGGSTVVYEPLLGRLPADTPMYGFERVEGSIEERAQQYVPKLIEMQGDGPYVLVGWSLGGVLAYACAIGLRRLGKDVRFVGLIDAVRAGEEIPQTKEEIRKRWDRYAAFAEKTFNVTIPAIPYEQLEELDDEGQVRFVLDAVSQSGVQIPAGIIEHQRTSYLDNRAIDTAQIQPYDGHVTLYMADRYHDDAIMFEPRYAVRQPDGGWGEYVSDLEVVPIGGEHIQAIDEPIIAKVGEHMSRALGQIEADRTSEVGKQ

Results are given as percent effect.
The controls that fix the scale are not given in the record; negative values are as filed.
The compounds are a random part of those screened.
A dash means the value is not listed here; it may have been measured.

structure,CoaBC,PfKRS1,Toxoplasma,MtTrpRS,Pks13 thioesterase
O=C(O)C(F)(F)F.O=C(O)C(F)(F)F.O=C(O)C(F)(F)F.O=C(O)C(F)(F)F.[H][C@@]12CCN(CCN(C)C)[C@@]1([H])CCN2Cc1cccnc1OC,-,-,21.29%,-,-
CN(Cc1n[nH]c2c1CCCCC2)C(=O)c1cc(-c2cccn2C)n[nH]1,5.646%,2.274%,9.612%,4.132%,-6.489%
N#Cc1ccc(NCC(=O)Nc2ccn(Cc3cccnc3)n2)cc1,2.163%,-1.853%,-9.897%,-0.7991%,7.687%
CN(Cc1ccco1)Cc1ccccc1CNC(=O)c1cc[nH]n1,-19.83%,2.683%,-1.616%,-2.554%,-7.081%
CCS(=O)(=O)Cc1nc(-c2cnn3c(C)cc(C)nc23)no1,0.3841%,-2.4%,12.79%,2.185%,3.495%
NC(=O)NC(CC(=O)NCCc1ccc(F)cc1)c1ccccc1 (stereo not drawn),1.474%,6.427%,-17.14%,3.077%,-4.141%
CC(NC(=O)OC(C)(C)C)c1nnc(S(=O)(=O)Cc2ccc(Cl)cc2)o1 (stereo not drawn),4.358%,2.628%,26.54%,4.364%,-5.184%
Cn1cccc1C(O)CNC(=O)c1ccc(C(F)(F)F)cc1 (stereo not drawn),1.908%,2.364%,4.097%,-3.563%,4.717%
Cc1occc1C(=O)N1CCO[C@H]2[C@@H](Oc3ccccn3)CC[C@@H]21,-3.627%,3.944%,-,-1.057%,-16.41%
CC(NCc1nnc2n1CCCC2)c1nc(Cc2ccccc2)no1 (stereo not drawn),11.44%,1.801%,-33.78%,-2.106%,-6.836%
COc1ccc(CNC(=O)c2nn(C)c3c2CS(=O)(=O)CC3)cc1OC,1.75%,5.329%,-0.5977%,-2.211%,-26.33%
COc1ccccc1CN1CCCCC1c1n[nH]cc1-c1cc(C)no1 (stereo not drawn),0.7282%,2.236%,-,0.3524%,-23.88%
Cc1cccnc1NC(=O)CC1(Cn2cnnn2)CCCCC1,-2.564%,5.467%,-0.05028%,5.826%,-15.36%
Cc1ccc(CCNC(=O)Cn2nc(C)n(Cc3ccccc3)c2=O)o1,9.979%,-5.522%,-3.623%,-0.08374%,-21.99%
Cc1noc(C)c1CC(=O)NCc1ccnc(OCC(F)(F)F)c1,-1.141%,-1.543%,-6.461%,-4.583%,-1.788%
[H][C@@]12CCN(C(=O)C3CC3)[C@]1([H])C(=O)N(c1ccc(F)cc1)C(=O)N2,-,-,-7.748%,-,-
Cn1c(-c2ccccc2Cl)nc2cc(C(=O)NCC3(CO)CC3)cnc21,3.004%,3.682%,-0.7536%,-1.847%,-35.55%
NC1(c2nc(C(F)(F)F)cc(=O)[nH]2)CCCC1,-0.3681%,0.1848%,-,-0.08223%,-10.31%
CN(C)C(=O)C1OC2(CCNCC2)c2ccccc21.O=C(O)C(F)(F)F (stereo not drawn),-,-,16.49%,-,-
CC(C)CC(=O)N1CCC2(CC1)OC(C(N)=O)Cn1ccnc12 (stereo not drawn),5.926%,5.206%,-,-,-10.36%
CCC(NC(=O)Nc1ccc(OC)c(C)c1)c1noc(C)n1 (stereo not drawn),-,4.519%,-0.1815%,0.7224%,1.202%
Cc1noc(C)c1CN1CCC2(CC1)CN(c1ccccn1)CCO2,-4.731%,4.693%,-,5.221%,-23.14%
CN(C)Cc1ccnc(C2CN(Cc3c(F)cccc3F)CCO2)n1 (stereo not drawn),1.211%,3.941%,14.14%,-,-6.837%
Cc1cnc(C(=O)N2C[C@H]3CN(Cc4cccs4)C[C@H]3C2)cn1,6.947%,5.61%,-,1.943%,-8.179%
CC(C)c1ncc2c(n1)CN(Cc1nc(Cc3ccccc3)no1)CC2,15.85%,6.428%,16.59%,-0.2916%,-7.709%
c1ccc2ncc(CC3CCNC3)cc2c1 (stereo not drawn),1.595%,-1.03%,-6.901%,9.696%,-23.57%
Cc1ccc(C(=O)N2C[C@@H]3CCN(C(C)C)C[C@@H]3C2)cn1,-0.7634%,6.218%,-,5.74%,-26.13%
CCN(C(=O)COC)C(c1cccnc1)c1ccc2c(c1)CCO2 (stereo not drawn),7.097%,2.824%,-6.443%,-4.194%,-7.764%
O=C(O)C(F)(F)F.[H][C@@]12CCN(S(C)(=O)=O)CC[C@]1(C(=O)N1CCCC1)CCN2CC,-,-,-0.1098%,-,-
CCOCC1CN(CCc2ccccc2)Cc2c1cnn2C (stereo not drawn),0%,-1.722%,-0.9202%,3.993%,20.43%
O=C(c1ccc[nH]1)N1CCc2c(COCc3ccncc3)cncc2C1,14.34%,4.929%,-,0.839%,-6.765%
Cc1ccc(OC(C)CNC(=O)c2c[nH]nn2)cc1 (stereo not drawn),-0.489%,-1.223%,4.147%,-1.958%,-71.7%
CCn1nccc1CN(C)c1[nH]cnc2nc(C)nc1-2,5.825%,4.393%,-5.037%,0.576%,3.499%
Cc1ccc(C(=O)N2C[C@H]3CNC[C@H]3C2)cn1,-1.527%,-0.7801%,-,-1.859%,-40.69%
Cc1ccc(C(=O)N2CCCC(CNS(C)(=O)=O)C2)o1 (stereo not drawn),-3.376%,1.475%,3.473%,-4.379%,-4.644%

From ChEMBL document CHEMBL3988442, “University of Dundee, Small-Polar-MMV Screening Library” (2021).